Measured values as given in article PMC8564113, “Erianin: A Direct NLRP3 Inhibitor With Remarkable Anti-Inflammatory Activity” (Frontiers in Immunology, 2021).
Results are given in words; binding and its absence hold for the method and conditions named. Binding seen in cells or lysates may run through a third protein. Some results given as binding are weak or reduced against the parent protein; the word gives no strength.

Amino acid sequences for entries named in this document (tags omitted). A change or cut given only in a name is not applied to a line headed by its entry.
UniProt Q9ULZ3: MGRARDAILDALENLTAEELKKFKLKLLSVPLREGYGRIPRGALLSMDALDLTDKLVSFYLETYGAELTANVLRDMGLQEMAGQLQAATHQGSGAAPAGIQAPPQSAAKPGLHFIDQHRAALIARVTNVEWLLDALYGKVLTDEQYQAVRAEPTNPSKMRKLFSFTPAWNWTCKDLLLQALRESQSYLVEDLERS
UniProt Q8TDX7: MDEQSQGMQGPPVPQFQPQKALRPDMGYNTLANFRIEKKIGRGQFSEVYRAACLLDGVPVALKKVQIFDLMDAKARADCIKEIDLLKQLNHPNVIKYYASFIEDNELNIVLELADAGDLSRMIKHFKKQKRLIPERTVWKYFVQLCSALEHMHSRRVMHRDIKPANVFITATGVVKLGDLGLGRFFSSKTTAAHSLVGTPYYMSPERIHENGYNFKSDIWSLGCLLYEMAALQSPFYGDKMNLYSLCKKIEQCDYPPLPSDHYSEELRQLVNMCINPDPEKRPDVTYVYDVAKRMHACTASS
UniProt P29466: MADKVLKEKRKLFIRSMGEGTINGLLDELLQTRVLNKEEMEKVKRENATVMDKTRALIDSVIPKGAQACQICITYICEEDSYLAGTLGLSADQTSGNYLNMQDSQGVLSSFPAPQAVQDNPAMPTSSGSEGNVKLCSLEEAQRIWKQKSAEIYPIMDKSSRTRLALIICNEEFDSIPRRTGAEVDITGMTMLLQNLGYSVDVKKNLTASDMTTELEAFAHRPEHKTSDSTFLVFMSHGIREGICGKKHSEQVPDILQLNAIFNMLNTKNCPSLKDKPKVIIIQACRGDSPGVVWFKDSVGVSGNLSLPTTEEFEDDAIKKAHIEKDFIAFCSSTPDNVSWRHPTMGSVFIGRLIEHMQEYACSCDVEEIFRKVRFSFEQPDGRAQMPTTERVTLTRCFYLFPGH

Key:
[1] = biological target: Myc-ASC (UniProt Q9ULZ3); assay: co-IP; HEK293T co-transfected for 36 h, no Eri; 500 ug extract with primary antibody overnight at 4 C, protein A/G Sepharose CL-4B, western blot (ASC-Casp-1 kept also with Eri 5 nM, 6 h)
[2] = biological target: Myc-tagged NEK7 (printed as Myc-tagged MEK7) (UniProt Q8TDX7); assay: co-IP; exogenous proteins, with Eri (Figure S4A; cells and tags not shown)
[3] = biological target: NEK7 (endogenous, Figure S4B) (UniProt Q8TDX7); assay: co-IP; endogenous proteins, with Eri (Figure S4B; cells not shown)

**Q.** For Flag-Casp-1 (from UniProt P29466 1-404), which binding [1] is on record?
**A.** The binding was “binds”.

B1: NEK9 (exogenous) (protein, UniProt Q8TD19 1-979)
chain: MSVLGEYERHCDSINSDFGSESGGCGDSSPGPSASQGPRAGGGAAEQEELHYIPIRVLGRGAFGEATLYRRTEDDSLVVWKEVDLTRLSEKERRDALNEIVILALLQHDNIIAYYNHFMDNTTLLIELEYCNGGNLYDKILRQKDKLFEEEMVVWYLFQIVSAVSCIHKAGILHRDIKTLNIFLTKANLIKLGDYGLAKKLNSEYSMAETLVGTPYYMSPELCQGVKYNFKSDIWAVGCVIFELLTLKRTFDATNPLNLCVKIVQGIRAMEVDSSQYSLELIQMVHSCLDQDPEQRPTADELLDRPLLRKRRREMEEKVTLLNAPTKRPRSSTVTEAPIAVVTSRTSEVYVWGGGKSTPQKLDVIKSGCSARQVCAGNTHFAVVTVEKELYTWVNMQGGTKLHGQLGHGDKASYRQPKHVEKLQGKAIRQVSCGDDFTVCVTDEGQLYAFGSDYYGCMGVDKVAGPEVLEPMQLNFFLSNPVEQVSCGDNHVVVLTRNKEVYSWGCGEYGRLGLDSEEDYYTPQKVDVPKALIIVAVQCGCDGTFLLTQSGKVLACGLNEFNKLGLNQCMSGIINHEAYHEVPYTTSFTLAKQLSFYKIRTIAPGKTHTAAIDERGRLLTFGCNKCGQLGVGNYKKRLGINLLGGPLGGKQVIRVSCGDEFTIAATDDNHIFAWGNGGNGRLAMTPTERPHGSDICTSWPRPIFGSLHHVPDLSCRGWHTILIVEKVLNSKTIRSNSSGLSIGTVFQSSSPGGGGGGGGGEEEDSQQESETPDPSGGFRGTMEADRGMEGLISPTEAMGNSNGASSSCPGWLRKELENAEFIPMPDSPSPLSAAFSESEKDTLPYEELQGLKVASEAPLEHKPQVEASSPRLNPAVTCAGKGTPLTPPACACSSLQVEVERLQGLVLKCLAEQQKLQQENLQIFTQLQKLNKKLEGGQQVGMHSKGTQTAKEEMEMDPKPDLDSDSWCLLGTDSCRPSL
**Q.** B1 was tested. Which binding [2] did it give?
**A.** Its binding is “binds”.

B2: NEK9 (endogenous, Figure S4B) (protein, UniProt Q8TD19 1-979)
chain: B1 chain
**Q.** With B2 as the molecule, how does the binding [3] read?
**A.** Its binding is “binds”.
